Assay results as given in patent US20150241442A1.
These are yes or no findings as the source states them, for the method shown. Some entries that bind do so weakly or less than the wild type.

The chains behind the UniProt entries cited, without tags or fusion partners. Residues count along the entry.
UniProt P09055, residues 21-798: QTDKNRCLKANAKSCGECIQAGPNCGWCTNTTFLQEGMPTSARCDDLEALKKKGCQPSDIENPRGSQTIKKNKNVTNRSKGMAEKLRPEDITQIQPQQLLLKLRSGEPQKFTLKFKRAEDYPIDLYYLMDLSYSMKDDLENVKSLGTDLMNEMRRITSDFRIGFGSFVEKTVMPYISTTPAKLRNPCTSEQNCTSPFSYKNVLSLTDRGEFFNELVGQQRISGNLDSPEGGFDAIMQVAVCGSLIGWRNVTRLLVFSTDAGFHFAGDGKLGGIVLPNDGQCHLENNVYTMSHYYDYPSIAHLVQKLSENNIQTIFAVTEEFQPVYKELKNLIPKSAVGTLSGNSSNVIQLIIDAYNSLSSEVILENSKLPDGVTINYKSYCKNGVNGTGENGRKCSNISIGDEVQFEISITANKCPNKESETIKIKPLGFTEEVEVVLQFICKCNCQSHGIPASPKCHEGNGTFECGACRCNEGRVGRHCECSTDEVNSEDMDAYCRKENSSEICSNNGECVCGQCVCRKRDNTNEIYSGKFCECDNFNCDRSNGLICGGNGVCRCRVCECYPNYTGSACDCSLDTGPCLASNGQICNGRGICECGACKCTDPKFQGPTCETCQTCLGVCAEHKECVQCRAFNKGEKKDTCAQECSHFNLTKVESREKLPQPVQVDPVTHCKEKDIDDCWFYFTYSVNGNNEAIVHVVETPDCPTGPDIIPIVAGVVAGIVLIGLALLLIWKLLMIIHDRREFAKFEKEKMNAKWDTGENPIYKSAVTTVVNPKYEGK
UniProt P11835, residues 24-771: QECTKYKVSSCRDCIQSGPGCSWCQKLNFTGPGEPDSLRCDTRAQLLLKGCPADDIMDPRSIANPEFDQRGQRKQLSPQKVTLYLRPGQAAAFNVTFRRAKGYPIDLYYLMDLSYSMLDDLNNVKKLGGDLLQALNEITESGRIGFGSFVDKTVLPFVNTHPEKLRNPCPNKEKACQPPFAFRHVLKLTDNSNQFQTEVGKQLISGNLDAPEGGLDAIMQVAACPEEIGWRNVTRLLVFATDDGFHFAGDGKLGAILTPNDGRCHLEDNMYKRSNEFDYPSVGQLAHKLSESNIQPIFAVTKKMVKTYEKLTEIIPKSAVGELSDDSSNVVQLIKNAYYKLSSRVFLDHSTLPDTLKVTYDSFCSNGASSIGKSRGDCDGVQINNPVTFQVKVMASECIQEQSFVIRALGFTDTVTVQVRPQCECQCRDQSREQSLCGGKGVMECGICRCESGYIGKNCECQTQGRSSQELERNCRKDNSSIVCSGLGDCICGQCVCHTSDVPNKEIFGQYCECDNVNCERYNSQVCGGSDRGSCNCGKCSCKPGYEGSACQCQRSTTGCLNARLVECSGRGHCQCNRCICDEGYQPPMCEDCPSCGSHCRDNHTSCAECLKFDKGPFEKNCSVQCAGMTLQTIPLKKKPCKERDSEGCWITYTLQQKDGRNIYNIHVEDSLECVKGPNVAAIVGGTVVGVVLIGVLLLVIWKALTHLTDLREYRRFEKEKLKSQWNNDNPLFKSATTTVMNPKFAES

How the values were obtained:
[1] = biological target: β1 integrin (surface protein of NIH3T3 cells) (murine (NIH3T3 murine fibroblasts)) (UniProt P09055); experiment: two-column affinity chromatography, immunoblot (FIG. 15C)
[2] = biological target: β2 integrin (surface protein of NIH3T3 cells) (murine (NIH3T3 murine fibroblasts)) (UniProt P11835); experiment: as above
[3] = biological target: T1, β3 integrin (surface protein of NIH3T3 cells) (murine (NIH3T3 murine fibroblasts)) (UniProt O54890); experiment: as above
T1 sequence (surface biotinylated (sulfo-NHS-LC-Biotin), looked up): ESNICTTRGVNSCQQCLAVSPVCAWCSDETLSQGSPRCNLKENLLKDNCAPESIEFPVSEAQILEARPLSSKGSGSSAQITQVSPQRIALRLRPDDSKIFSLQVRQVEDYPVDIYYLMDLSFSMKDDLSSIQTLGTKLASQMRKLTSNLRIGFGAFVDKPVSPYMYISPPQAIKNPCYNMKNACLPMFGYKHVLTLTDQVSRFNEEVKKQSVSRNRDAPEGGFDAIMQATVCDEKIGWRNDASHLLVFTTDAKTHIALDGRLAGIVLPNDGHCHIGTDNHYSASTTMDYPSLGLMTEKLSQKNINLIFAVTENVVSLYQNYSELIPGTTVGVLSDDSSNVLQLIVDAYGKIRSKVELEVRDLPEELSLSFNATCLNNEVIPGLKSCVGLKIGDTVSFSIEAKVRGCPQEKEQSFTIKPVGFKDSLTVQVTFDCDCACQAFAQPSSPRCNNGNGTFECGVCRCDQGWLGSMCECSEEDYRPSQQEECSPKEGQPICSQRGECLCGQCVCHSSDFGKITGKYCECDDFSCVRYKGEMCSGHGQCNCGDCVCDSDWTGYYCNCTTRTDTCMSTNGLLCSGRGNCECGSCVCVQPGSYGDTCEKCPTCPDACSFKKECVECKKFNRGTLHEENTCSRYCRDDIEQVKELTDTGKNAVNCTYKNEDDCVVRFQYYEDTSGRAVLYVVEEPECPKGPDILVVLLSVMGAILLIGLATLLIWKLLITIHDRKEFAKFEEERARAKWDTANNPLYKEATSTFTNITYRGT

[4] = biological target: β1 integrin (surface protein of NIH3T3 cells) (murine (NIH3T3 murine fibroblasts)) (UniProt P09055); experiment: ICAM-2 solid support and streptavidin-agarose two-column affinity chromatography, immunoblot
[5] = biological target: β2 integrin (surface protein of NIH3T3 cells) (murine (NIH3T3 murine fibroblasts)) (UniProt P11835); experiment: as above
[6] = biological target: T1, β3 integrin (surface protein of NIH3T3 cells) (murine (NIH3T3 murine fibroblasts)); experiment: as above

binding [1]: binds
binding [2]: binds
binding [3]: binds
binding [4]: binds
binding [5]: binds
binding [6]: binds
B1: soluble ICAM-2 (biochemically purified human ICAM-2 protein) (ligand, UniProt P13598 25-223, looked up)
chain: KVFEVHVRPKKLAVEPKGSLEVNCSTTCNQPEVGGLETSLDKILLDEQAQWKHYLVSNISHDTVLQCHFTCSGKQESMNSNVSVYQPPRQVILTLQPTLVAVGKSFTIECRVPTVEPLDSLTLFLFRGNETLHYETFGKAAPAPQEATATFNSTADREDGHRNFSCLAVLDLMSRGGNIFHKHSAPKMLEIYEPVSDSQ
